Results deposited as PubChem BioAssay AID1259254 (NCATS, 2017).

Test: 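Finding genes that stop cells copying their DNA twice in one cycle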 (primary screen)
System: human HCT116 colorectal cancer cells
Knock-down reagent: single siRNA against human genes
Timing: 3 days
Measurement: 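Nuclei stained with Hoechst and imaged; cell-cycle phase assigned by DNA content; G2 share scaled per plate, non-targeting siRNA 0%, GMNN siRNA 100%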
Reading the numbers: G2 robust z-score and G2 cells, % of GMNN control: higher = more G2 cells, more excess DNA replication
Rule for the call: 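An siRNA counts as active if its G2 robust z-score lies at least 5 MADs above the screen median; here such calls match roughly 38% of GMNN control or more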
In all, the deposit lists about 59,000 reagents; below is an unselected part. Of all reagents, about 1,550 (2.6%) are marked active. 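G2 share is only a proxy for re-replication; each gene was hit by three separate siRNAs, and active genes were retested.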 Reagents against one gene are numbered here. Further read-outs or replicates are left out here. Not stated in the record: the amount of reagent.

TMEM151A (GeneID 256472) #1
- G2 robust z-score: 1.25
- G2 cells, % of GMNN control: 11.8
- call: inactive

TMEM151A (GeneID 256472) #2
- G2 robust z-score: 0.243
- G2 cells, % of GMNN control: 4.68
- call: inactive

TMEM151A (GeneID 256472) #3
- G2 robust z-score: -0.643
- G2 cells, % of GMNN control: -1.56
- call: inactive

DMP1 (GeneID 1758) #1
- G2 robust z-score: 2.13
- G2 cells, % of GMNN control: 18
- call: inactive

DMP1 (GeneID 1758) #2
- G2 robust z-score: 0.414
- G2 cells, % of GMNN control: 5.88
- call: inactive

DMP1 (GeneID 1758) #3
- G2 robust z-score: -0.903
- G2 cells, % of GMNN control: -3.38
- call: inactive

C4orf36 (GeneID 132989) #1
- G2 robust z-score: -1.28
- G2 cells, % of GMNN control: -6.07
- call: inactive

C4orf36 (GeneID 132989) #2
- G2 robust z-score: -0.816
- G2 cells, % of GMNN control: -2.77
- call: inactive

C4orf36 (GeneID 132989) #3
- G2 robust z-score: -0.969
- G2 cells, % of GMNN control: -3.85
- call: inactive

Continued (2 carried over from the part before).
C4orf36 (GeneID 132989) #2
- G2 robust z-score: -0.816
- G2 cells, % of GMNN control: -2.77
- call: inactive

C4orf36 (GeneID 132989) #3
- G2 robust z-score: -0.969
- G2 cells, % of GMNN control: -3.85
- call: inactive

TEX11 (GeneID 56159) #1
- G2 robust z-score: -0.48
- G2 cells, % of GMNN control: -0.409
- call: inactive

TEX11 (GeneID 56159) #2
- G2 robust z-score: 0.0233
- G2 cells, % of GMNN control: 3.13
- call: inactive

TEX11 (GeneID 56159) #3
- G2 robust z-score: -0.858
- G2 cells, % of GMNN control: -3.07
- call: inactive

HECTD4 (GeneID 283450) #1
- G2 robust z-score: 0.804
- G2 cells, % of GMNN control: 8.62
- call: inactive

HECTD4 (GeneID 283450) #2
- G2 robust z-score: -0.677
- G2 cells, % of GMNN control: -1.79
- call: inactive

HECTD4 (GeneID 283450) #3
- G2 robust z-score: -0.998
- G2 cells, % of GMNN control: -4.06
- call: inactive

HECTD4 (GeneID 283450) #4
- G2 robust z-score: -0.977
- G2 cells, % of GMNN control: -3.91
- call: inactive

HECTD4 (GeneID 283450) #5
- G2 robust z-score: 0.148
- G2 cells, % of GMNN control: 4.01
- call: inactive

HECTD4 (GeneID 283450) #6
- G2 robust z-score: 6.17
- G2 cells, % of GMNN control: 46.4
- call: active

HOOK2 (GeneID 29911) #1
- G2 robust z-score: -0.417
- G2 cells, % of GMNN control: 0.0333
- call: inactive

HOOK2 (GeneID 29911) #2
- G2 robust z-score: 0.253
- G2 cells, % of GMNN control: 4.75
- call: inactive

HOOK2 (GeneID 29911) #3
- G2 robust z-score: 0.061
- G2 cells, % of GMNN control: 3.4
- call: inactive

FERMT1 (GeneID 55612) #1
- G2 robust z-score: 4.49
- G2 cells, % of GMNN control: 34.5
- call: inactive

FERMT1 (GeneID 55612) #2
- G2 robust z-score: 1.36
- G2 cells, % of GMNN control: 12.6
- call: inactive

FERMT1 (GeneID 55612) #3
- G2 robust z-score: -0.817
- G2 cells, % of GMNN control: -2.78
- call: inactive
